Values from PubChem BioAssay AID504791 (Drosophila RNAi Screening Center, 2011).
Aim: 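Factors in Argonaute-based small RNA production and activity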 (primary screen). System: Drosophila S2-derived reporter cells. Knock-down reagent: long dsRNA against Drosophila genes, about 150-250 ng dsRNA per well (siRNA assay); about 80-120 ng (miRNA assay). Time to read-out: about 5 days (siRNA assay); about 4 days (miRNA assay). Treatment: copper sulfate induction of reporters: 25 µM (siRNA assay); 200 mM stated (miRNA assay), 1-2 days before reading. Read-out: 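Dual luciferase assay: Renilla to firefly signal ratio in each well, scaled to the mean ratio of its plate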. Call rule: 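a well was a first-pass pick when its plate-scaled ratio rose above 1.5 (siRNA assay) or 1.6 (miRNA assay), or dropped below 0.6; a gene counted only if two separate dsRNAs agreed on retest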.
The deposit covers about 23,000 reagents; shown is an unselected part of those that have a named target and a result. Of all reagents, 199 (0.86%) were called active. 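Plate-scaled ratios behind the calls are not deposited; printed light signals are raw; many rows marked increased or decreased are still called inactive.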 Entries without a mark were called inactive. The numbers tell different reagents against one gene apart. A plus sign joins genes that one reagent is predicted to hit. Not all columns of the deposit are shown. Not given: the direction of the score.

no.	target	reagent	stable siRNA reporter change	miRNA reporter change	stable assay Renilla, run 1 (luminescence)
1	CG12862	1			5688
2	CG32269 + CG32270	1			6062
3	CG15073	1			5254
4	CG6136	1			7604
5	CG12531	1			6467
6	Fbp1 (Fat body protein 1)	1			7234
7	CG11247	1			5411
8	CG11247	2			8971
9	Cyp4d1 (Cytochrome P450 4d1)	1			5779
10	Cyp4d1 (Cytochrome P450 4d1)	2			7227
11	CR31700 (pseudo)	1			4395
12	CG9396	1			6846
13	CG6333	1			6424
14	Gpdh2 (Glycerol-3-phosphate dehydrogenase 2)	1			4524
15	Fum3 (Fumarase 3)	1			6411
16	ND-15 (NADH dehydrogenase (ubiquinone) 15 kDa subunit)	1			10408
17	CG5225	1			6759
18	CG5001	1			7462
19	CG6937	1			6304
20	NO66 (Nucleolar protein 66)	1			7290
21	CG11413 + CG4622	1			7466
22	Syx5 (Syntaxin 5)	1			7266
23	CG13813	1			6939
24	CG42686 (retired record)	1			4998
25	CG42686 (retired record)	2			7286
26	CG42686 (retired record)	3			3628
27	DUBAI + Tmem18	1			5999
28	Dlip2 (Dorsal interacting protein 2)	1			7823
29	S6kII (Ribosomal protein S6 kinase II)	1			7618
30	Con (Connectin)	1			8577
31	Sfp38D (Seminal fluid protein 38D)	1			5204
32	mxc (multi sex combs)	1			3435
33	Hmgcr (HMG Coenzyme A reductase)	1		reporter ratio raised past the hit cutoff	5583
34	FoxP (Forkhead box P)	1			6490
35	FoxP (Forkhead box P)	2			8888
36	eIF3m (eukaryotic translation initiation factor 3 subunit m)	1			6886
37	psh (persephone)	1			5672
38	CG4098	1			9045
39	RhoGAP54D (Rho GTPase activating protein at 54D)	1			5655
40	primo-2 + primo-1	1			8018
41	sob	1		reporter ratio lowered past the hit cutoff	5338
42	CG31459	1			4839
43	Eaat1 (Excitatory amino acid transporter 1)	1			8518

Continued; the last 9 above are carried over.
no.	target	reagent	stable siRNA reporter change	miRNA reporter change	stable assay Renilla, run 1 (luminescence)
35	FoxP (Forkhead box P)	2			8888
36	eIF3m (eukaryotic translation initiation factor 3 subunit m)	1			6886
37	psh (persephone)	1			5672
38	CG4098	1			9045
39	RhoGAP54D (Rho GTPase activating protein at 54D)	1			5655
40	primo-2 + primo-1	1			8018
41	sob	1		reporter ratio lowered past the hit cutoff	5338
42	CG31459	1			4839
43	Eaat1 (Excitatory amino acid transporter 1)	1			8518
44	Dic3	1			6675
45	Pep (Protein on ecdysone puffs)	1		reporter ratio raised past the hit cutoff (active)	10798
46	CG14841	1			8082
47	Noc2 (Nucleolar complex protein 2)	1			6324
48	tut (tumorous testis)	1			4827
49	CG42525	1			4603
50	Invadolysin	1			7844
51	dop (drop out)	1			8503
52	Mondo	1			87604
53	Mondo	2			5563
54	Mondo	3			9221
55	CG7275	1			7656
56	Eb1	1			6598
57	Tk (Tachykinin)	1			4836
58	Tk (Tachykinin)	2			9078
59	CR30374 (pseudo)	1			4635
60	CG12517	1			7956
61	Mctp (Multiple C2 domain and transmembrane region protein)	1			7210
62	Mctp (Multiple C2 domain and transmembrane region protein)	2			5988
63	Tbc1d8-9 (TBC1 domain family member 8/9)	1			11121
64	Cyp6a20 (Cytochrome P450 6a20)	1			8135
65	squ (squash)	1			4351
66	CG14420	1			6930
67	Arl4 (ADP ribosylation factor-like 4)	1			5739
68	CG7220	1			7015
69	CG7220	2			6922
70	tin (tinman)	1	reporter ratio lowered past the hit cutoff		8566
71	tin (tinman)	2			3760
72	tin (tinman)	3			4236
73	Ag5r (Antigen 5-related)	1			7143
74	Tssk (Testis-specific serine/threonine kinase)	1			7566
75	CG14352	1			8387
76	Dhc93AB (Dynein heavy chain at 93AB)	1			7778
77	CG13058	1			7300
78	SmD3 (Small ribonucleoprotein particle protein SmD3)	1			10941
79	CG33288	1			5767
80	Irbp18 (Inverted repeat binding protein 18 kDa)	1		reporter ratio lowered past the hit cutoff (active)	4980
81	Dyb (Dystrobrevin)	1			5643
82	Dyb (Dystrobrevin)	2			5375
83	Snmp2 (Sensory neuron membrane protein 2)	1			6350
84	Snmp2 (Sensory neuron membrane protein 2)	2			6668
